{"source": "PubChem BioAssay AID328", "about": "(DTP/NCI, 2004)", "test_system": "BDF1 mice, P388 leukemia ip, median survival T/C", "assay": "NCI In Vivo Anticancer Drug Screen. Data for tumor model P388 Leukemia (intraperitoneal) in B6D2F1 (BDF1) mice", "details": "T/C endpoint: median survival time, higher T/C = longer survival", "in_short": "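Survival ratio, drug arm over vehicle arm, in mice with a transplanted tumour.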", "key": {"[1]": {"details": "dose: 400.0 mg/kg/injection, schedule: Q04DX003 (ip), vehicle: saline with Tween-80"}, "[2]": {"details": "dose: 100.0 mg/kg/injection, schedule: Q01DX009 (ip), vehicle: saline with Tween-80"}, "[3]": {"details": "dose: 200.0 mg/kg/injection, schedule: Q01DX009 (ip), vehicle: saline with Tween-80"}, "[4]": {"details": "dose: 400.0 mg/kg/injection, schedule: Q01DX009 (ip), vehicle: saline with Tween-80"}, "[5]": {"details": "dose: 300.0 mg/kg/injection, schedule: Q01DX009 (ip), vehicle: water"}, "[6]": {"details": "dose: 200.0 mg/kg/injection, schedule: Q04DX003 (ip), vehicle: saline with Tween-80"}}, "note": "The list is a part of this screen's results and no random one: it is rich in T/C values a quarter to a half above the control, in often repeated tests (any T/C) and in doses without a T/C. Other doses and runs of a compound stand elsewhere. T/C gives the treated animals as a percentage of the vehicle group. Some entries give survivors of the animals treated and no T/C: the source files T/C as zero there, which appears to mark a toxic dose or a test without result, not a measured value. Some doses without a T/C left all or most animals alive at the check, yet need not have been tolerated: the source hardly ever lists a survival T/C far under the control, and the zero likely stands for such cases as well. Survivors were counted at the toxicity check, usually on the fifth day, unless a day is given; later deaths do not show. Schedules are NCI's codes, taken here to give the interval after Q, in days (D) or hours (H), and the number of doses after X. Some entries were tested several times; their values stand side by side, smallest first. For survival time, this PubChem deposit counts one and a half times the control or more as active, and values a quarter to a half above the control carry no call in these data; other NCI protocols may use other cut-offs.", "data": [{"compound": "COc1ccc2nc3cc(Cl)ccc3c(NC(C)CCCN(CCCl)CCCl)c2c1", "note": "(stereo not given)", "values": [{"measurement": "T/C", "setting": "dose: 0.2 mg/kg/injection, schedule: Q04DX003 (ip), vehicle: saline", "result": "136 % of control"}, {"measurement": "T/C", "setting": "dose: 0.26 mg/kg/injection, schedule: Q04DX003 (ip), vehicle: saline", "result": "130 % of control"}, {"measurement": "T/C", "setting": "dose: 0.4 mg/kg/injection, schedule: Q01DX009 (ip), vehicle: saline", "result": "136 % of control"}, {"measurement": "T/C", "setting": "dose: 0.4 mg/kg/injection, schedule: Q04DX003 (ip), vehicle: saline", "result": "133 and 145 % of control"}, {"measurement": "T/C", "setting": "dose: 0.5 mg/kg/injection, schedule: Q01DX009 (ip), vehicle: saline", "result": "145 % of control"}, {"measurement": "T/C", "setting": "dose: 0.62 mg/kg/injection, schedule: Q04DX003 (ip), vehicle: saline", "result": "133, 136, 140 % of control"}, {"measurement": "T/C", "setting": "dose: 0.93 mg/kg/injection, schedule: Q04DX003 (ip), vehicle: saline", "result": "141 and 145 % of control"}, {"measurement": "T/C", "setting": "dose: 1.25 mg/kg/injection, schedule: Q04DX003 (ip), vehicle: saline", "result": "136 % of control"}, {"measurement": "survivor count", "setting": "dose: 1.8 mg/kg/injection, schedule: Q01DX009 (ip), vehicle: saline", "result": "4 of 6"}, {"measurement": "survivor count", "setting": "dose: 2.0 mg/kg/injection, schedule: Q01DX009 (ip), vehicle: saline", "result": "6 of 6"}, {"measurement": "survivor count", "setting": "dose: 2.5 mg/kg/injection, schedule: Q04DX003 (ip), vehicle: saline", "result": "6 of 6"}, {"measurement": "survivor count", "setting": "dose: 2.8 mg/kg/injection, schedule: Q01DX009 (ip), vehicle: saline", "result": "2 of 6"}, {"measurement": "survivor count", "setting": "dose: 4.0 mg/kg/injection, schedule: Q01DX009 (ip), vehicle: saline", "result": "0 of 6"}, {"measurement": "survivor count", "setting": "dose: 4.2 mg/kg/injection, schedule: Q01DX009 (ip), vehicle: saline", "result": "0 of 6"}, {"measurement": "survivor count", "setting": "dose: 8.0 mg/kg/injection, schedule: Q01DX009 (ip), vehicle: saline", "result": "0 of 6"}, {"measurement": "survivor count", "setting": "dose: 16.0 mg/kg/injection, schedule: Q01DX009 (ip), vehicle: saline", "result": "0 of 6 and 2 of 6"}, {"measurement": "T/C", "setting": "dose: 250.0 micrograms/kg/injection, schedule: Q01DX009 (ip), vehicle: saline", "result": "127 % of control"}, {"measurement": "T/C", "setting": "dose: 2000.0 micrograms/kg/injection, schedule: Q01DX009 (ip), vehicle: saline", "result": "131 % of control"}]}, {"compound": "O=P(Oc1cccc2ccccc12)(N1CC1)N1CC1", "values": [{"measurement": "T/C", "setting": "dose: 66.0 mg/kg/injection, schedule: Q01DX009 (ip), vehicle: saline with Tween-80", "result": "131 % of control"}, {"measurement": "T/C", "setting": "dose: 264.0 mg/kg/injection, schedule: Q04DX003 (ip), vehicle: saline with Tween-80", "result": "129 % of control"}, {"measurement": "survivor count", "setting": "[1]", "result": "6 of 6"}, {"measurement": "survivor count", "setting": "dose: 600.0 mg/kg/injection, schedule: Q04DX003 (ip), vehicle: saline with Tween-80", "result": "1 of 6 and 3 of 6"}]}, {"compound": "Cc1ccccc1-c1cc2ccccc2c(N)n1", "values": [{"measurement": "survivor count", "setting": "dose: 50.0 mg/kg/injection, schedule: Q01DX009 (ip), vehicle: saline with Tween-80", "result": "0 of 6"}, {"measurement": "survivor count", "setting": "[2]", "result": "0 of 6"}, {"measurement": "survivor count", "setting": "[3]", "result": "0 of 6"}]}, {"compound": "CC(C)=CC[P+](CCC[P+](CC=C(C)C)(c1ccccc1)c1ccccc1)(c1ccccc1)c1ccccc1", "values": [{"measurement": "survivor count", "setting": "dose: 50.0 mg/kg/injection, schedule: Q01DX005 (ip), vehicle: saline", "result": "0 of 6"}, {"measurement": "survivor count", "setting": "dose: 100.0 mg/kg/injection, schedule: Q01DX005 (ip), vehicle: saline", "result": "0 of 6"}, {"measurement": "survivor count", "setting": "dose: 200.0 mg/kg/injection, schedule: Q01DX005 (ip), vehicle: saline", "result": "0 of 6"}]}, {"compound": "CCCCCCC(=O)/C=C/c1c(Cl)cccc1Cl", "values": [{"measurement": "survivor count", "setting": "[4]", "result": "1 of 6"}]}, {"compound": "CS(=O)(=O)OCCC(=O)NCNC(=O)CCOS(C)(=O)=O", "values": [{"measurement": "T/C", "setting": "dose: 20.0 mg/kg/injection, schedule: Q04DX003 (ip), vehicle: Klucel (hydroxypropylcellulose) (HPC)", "result": "131 % of control"}, {"measurement": "T/C", "setting": "dose: 21.0 mg/kg/injection, schedule: Q04DX003 (ip), vehicle: Klucel (hydroxypropylcellulose) (HPC)", "result": "130 % of control"}]}, {"compound": "Clc1ccc(-c2cc(=[N+]3CC[N+](=c4cc(-c5ccc(Cl)cc5)ss4)CC3)ss2)cc1", "values": [{"measurement": "T/C", "setting": "dose: 25.0 mg/kg/injection, schedule: Q01DX009 (ip), vehicle: water", "result": "125 % of control"}, {"measurement": "T/C", "setting": "dose: 50.0 mg/kg/injection, schedule: Q01DX009 (ip), vehicle: water", "result": "126 % of control"}, {"measurement": "survivor count", "setting": "[5]", "result": "3 of 6"}, {"measurement": "survivor count", "setting": "dose: 400.0 mg/kg/injection, schedule: Q04DX003 (ip), vehicle: water", "result": "1 of 6"}]}, {"compound": "CCCCCCCCCCSc1ncnc2nc[nH]c12", "values": [{"measurement": "survivor count", "setting": "[2]", "result": "6 of 6"}, {"measurement": "survivor count", "setting": "[1]", "result": "6 of 6"}]}, {"compound": "NOCc1cccc(Cl)c1", "values": [{"measurement": "survivor count", "setting": "[6]", "result": "6 of 6"}]}, {"compound": "O=C(O)C1C(C(=O)O)C2(Cl)C(Cl)=C(Cl)C1(Cl)C2(Cl)Cl.[Cu+2]", "note": "(stereo not given)", "values": [{"measurement": "survivor count", "setting": "dose: 50.0 mg/kg/injection, schedule: Q01DX009 (ip), vehicle: saline sonified", "result": "0 of 6"}]}, {"compound": "CCN(CC)CC1CO1", "note": "(stereo not given)", "values": [{"measurement": "survivor count", "setting": "dose: 25.0 mg/kg/injection, schedule: Q01DX009 (ip), vehicle: saline", "result": "3 of 6"}, {"measurement": "survivor count", "setting": "dose: 50.0 mg/kg/injection, schedule: Q01DX009 (ip), vehicle: saline", "result": "0 of 6"}]}, {"compound": "CCOC(=O)N1CCN(CCCCCCOc2ccc(C3CCCCC3)cc2)CC1", "values": [{"measurement": "T/C", "setting": "[2]", "result": "126 % of control"}, {"measurement": "T/C", "setting": "[3]", "result": "127 % of control"}, {"measurement": "survivor count", "setting": "[4]", "result": "1 of 6"}]}, {"compound": "Cc1ccc(C(=O)O)cc1S(=O)(=O)Cl", "values": [{"measurement": "survivor count", "setting": "[6]", "result": "3 of 6"}, {"measurement": "survivor count", "setting": "[4]", "result": "2 of 6"}, {"measurement": "survivor count", "setting": "[1]", "result": "0 of 6"}]}, {"compound": "O=C(Nc1cccc(Cl)c1)C1CCCC1=Nc1cccc(Cl)c1", "note": "(stereo not given)", "values": [{"measurement": "survivor count", "setting": "[3]", "result": "6 of 6"}, {"measurement": "survivor count", "setting": "[4]", "result": "6 of 6"}]}, {"compound": "O=C(O)/C(Cl)=C(Cl)\\C=N\\Nc1ccccc1", "values": [{"measurement": "survivor count", "setting": "dose: 100.0 mg/kg/injection, schedule: Q04DX002 (ip), vehicle: saline with Tween-80", "result": "6 of 6"}, {"measurement": "survivor count", "setting": "dose: 400.0 mg/kg/injection, schedule: Q04DX002 (ip), vehicle: saline with Tween-80", "result": "0 of 6"}]}, {"compound": "COc1cc2ccncc2cc1OCc1ccccc1", "values": [{"measurement": "survivor count", "setting": "dose: 200.0 mg/kg/injection, schedule: Q01DX009 (ip), vehicle: saline", "result": "0 of 6"}, {"measurement": "survivor count", "setting": "dose: 400.0 mg/kg/injection, schedule: Q01DX009 (ip), vehicle: saline", "result": "0 of 6"}]}, {"compound": "Clc1ccc(C[P+](c2ccccc2)(c2ccccc2)c2ccccc2)cc1Cl", "values": [{"measurement": "survivor count", "setting": "dose: 2.6 mg/kg/injection, schedule: Q04DX003 (ip), vehicle: saline", "result": "3 of 6"}, {"measurement": "survivor count", "setting": "dose: 4.0 mg/kg/injection, schedule: Q04DX003 (ip), vehicle: saline", "result": "1 of 6"}, {"measurement": "survivor count", "setting": "dose: 5.4 mg/kg/injection, schedule: Q01DX001 (ip), vehicle: saline", "result": "3 of 6"}, {"measurement": "survivor count", "setting": "dose: 5.6 mg/kg/injection, schedule: Q01DX009 (ip), vehicle: saline", "result": "6 of 6"}, {"measurement": "survivor count", "setting": "dose: 6.0 mg/kg/injection, schedule: Q04DX003 (ip), vehicle: saline", "result": "1 of 6"}, {"measurement": "survivor count", "setting": "dose: 8.4 mg/kg/injection, schedule: Q01DX009 (ip), vehicle: saline", "result": "6 of 6"}]}, {"compound": "CC(=O)OCC(=O)[C@@]1(O)CC[C@H]2[C@@H]3CCC4=CC(=O)CC[C@]4(C)[C@@]3(Cl)[C@@H](O)C[C@@]21C", "values": [{"measurement": "T/C", "setting": "dose: 100.0 mg/kg/injection, schedule: Q04DX003 (ip), vehicle: saline with Tween-80", "result": "131 % of control"}]}, {"compound": "C#CC1(OCC(O)CO)CCCCC1", "note": "(stereo not given)", "values": [{"measurement": "T/C", "setting": "dose: 200.0 mg/kg/injection, schedule: Q01DX009 (ip), vehicle: water", "result": "138 % of control"}, {"measurement": "T/C", "setting": "[5]", "result": "128 % of control"}]}, {"compound": "CCCCCCCCCCN1CCOCCOCCN(CCCCCCCCCC)CCOCCOCC1", "values": [{"measurement": "survivor count", "setting": "dose: 12.5 mg/kg/injection, schedule: Q01DX005 (ip), vehicle: saline with Tween-80", "result": "2 of 5"}]}, {"compound": "COc1ccc(OC)c(NC(=O)Sc2c(Cl)c(Cl)nc(Cl)c2Cl)c1", "values": [{"measurement": "T/C", "setting": "dose: 50.0 mg/kg/injection, schedule: Q01DX009 (ip), vehicle: Klucel (hydroxypropylcellulose) (HPC)", "result": "129 % of control"}]}, {"compound": "N=c1nc2n(cc1F)[C@@H]1O[C@H](CO)[C@@H](O)[C@@H]1O2", "values": [{"measurement": "T/C", "setting": "dose: 32.0 mg/kg/injection, schedule: Q01DX005 (ip), vehicle: saline", "result": "137 % of control"}]}]}
